Measured values reported in ChEMBL document CHEMBL4118244, “Design, synthesis and biological evaluation of benzofuran appended benzothiazepine derivatives as inhibitors of butyrylcholinesterase and antimicrobial agents” (Bioorg Med Chem, 2018).

How the values were obtained:
Assay type in all cases: functional
[1] = system: Pseudomonas aeruginosa; assay: Antibacterial activity against Pseudomonas aeruginosa ATCC 27853 assessed as diameter of inhibition zone at 200 ug per disc after 24 hrs by agar disc diffusion method
In short: (§1)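 Agar disc diffusion. Compounds at 20 mg mL⁻¹ in DMSO, filter-sterilised. 100 µL of 10⁸ CFU mL⁻¹ bacteria spread on nutrient agar. 6 mm discs carried 10 µl (200 µg per disc), with DMSO discs as negative control. Incubation 24 h at 37 °C. Read-out is inhibition zone diameter, mean of 3 repeats (±1 mm).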

[2] = system: Staphylococcus aureus; assay: Antibacterial activity against Staphylococcus aureus ATCC 29737 assessed as diameter of inhibition zone at 200 ug per disc after 24 hrs by agar disc diffusion method; in short: as §1
[3] = system: Escherichia coli; assay: Antibacterial activity against Escherichia coli ATCC 10536 assessed as diameter of inhibition zone at 200 ug per disc after 24 hrs by agar disc diffusion method; in short: as §1
[4] = system: Candida albicans; assay: Antifungal activity against Candida albicans ATCC 10231 assessed as diameter of inhibition zone at 200 ug per disc after 48 hrs by agar disc diffusion method
In short: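 Yeast tested by agar disc diffusion. Compounds at 20 mg mL⁻¹ in DMSO, filter-sterilised. 6 mm discs carried 10 µl (200 µg per disc), with DMSO discs as negative control. Incubation 48 h at 30 °C. Zone diameter was averaged over 3 repeats (±1 mm).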

Sequence	inhibition zone (IZ) [1] [mm]	inhibition zone (IZ) [2] [mm]	inhibition zone (IZ) [3] [mm]	inhibition zone (IZ) [4] [mm]
GENTAMICIN	< 6	21	20	
NYSTATIN				33
